Laboratory results published in patent publication US5854252A, “Dihalotriazolopyrimidine derivatives” (Shell Internationale Research Maatschappij B.V., priority 1993, dated 1998).
The name of at least one read-out is uncertain.

Assays:
Botrytis cinerea [1] = assay: Direct protectant activity against broad bean grey mould (BCB), Example 53(e); assay type: in vivo; conditions: protectant foliar spray, 1000 ppm
Alternaria solani [2] = assay: Activity against tomato early blight (AS), Example 53(d); assay type: in vivo; conditions: tomato seedlings, contact prophylactic foliar spray as under (a)
Puccinia recondita = assay: Activity against wheat brown rust (PR), Example 53(g); assay type: in vivo; conditions: protectant foliar spray, 1000 ppm
Venturia inaegualis = assay: Activity against apple scab in-vitro (VII), Example 54(h); assay type: cell-based
Rhizoctonia solani = assay: Activity against Rhizoctonia in-vitro (RSI), Example 54(g); assay type: cell-based
[3] = system: Pseudocercosporella herpotrichoides; assay: Activity against wheat eyespot in-vitro (PHI), Example 54(f); assay type: cell-based
Botrytis cinerea [4] = assay: Direct protectant activity against broad bean grey mould (BCB), Example 54(d); assay type: in vivo; conditions: protectant foliar spray, 600 ppm
Alternaria solani [5] = assay: Activity against tomato early blight (AS), Example 54(c); assay type: in vivo; conditions: prophylactic foliar spray, 600 ppm
[6] = * dosage of test compound = 30 ppm

SMILES: FC(F)(F)c1cccc(-c2c(Cl)nc3ncnn3c2Cl)c1 [Example 7]
- Fungicidal Activity BCB (disease control rating) (Botrytis cinerea [1]): 1 (about 50-80% disease control)
- Fungicidal Activity AS (disease control rating) (Alternaria solani [2]): 1 (about 50-80% disease control)
- Fungicidal Activity PR (disease control rating) (Puccinia recondita): 2 (greater than 80% disease control)

SMILES: CC(C)(C)c1ccc(-c2c(Cl)nc3ncnn3c2Cl)cc1 [Example 36]
- VII (disease control rating) (Venturia inaegualis; 10 ppm, 10 days at 20° C.): 2 (greater than 80% disease control)
- RSI (disease control rating) (Rhizoctonia solani; 10 ppm, 10 days at 20° C.): 2 (greater than 80% disease control)
- PHI (disease control rating) ([3]; 10 ppm, 10 days at 20° C.): 2 (greater than 80% disease control)

SMILES: Clc1nc2ncnn2c(Cl)c1-c1ccc(Oc2ccccc2)cc1 [Example 12]
- Fungicidal Activity BCB (disease control rating) (Botrytis cinerea [1]): 2 (greater than 80% disease control)
- Fungicidal Activity PR (disease control rating) (Puccinia recondita): 2 (greater than 80% disease control)

SMILES: COc1cccc(-c2c(Cl)nc3ncnn3c2Cl)c1 [Example 4]
- Fungicidal Activity BCB (disease control rating) (Botrytis cinerea [1]): 2 (greater than 80% disease control)
- Fungicidal Activity AS (disease control rating) (Alternaria solani [2]): 1 (about 50-80% disease control)
- Fungicidal Activity PR (disease control rating) (Puccinia recondita): 1 (about 50-80% disease control)

SMILES: Clc1nc2ncnn2c(Cl)c1-c1cccs1 [Example 26]
- Fungicidal Activity BCB (disease control rating) (Botrytis cinerea [1]): 2 (greater than 80% disease control)
- Fungicidal Activity AS (disease control rating) (Alternaria solani [2]): 1 (about 50-80% disease control)

SMILES: Clc1ccccc1-c1c(Br)nc2ncnn2c1Br [Example 2, 5,7-dibromo-6-(2-chlorophenyl)-1,2,4-triazolo[1,5a]pyrimidine]
- VII (disease control rating) (Venturia inaegualis; 10 ppm, 10 days at 20° C.): 2 (greater than 80% disease control)
- BCB (disease control rating) (Botrytis cinerea [4]): 2 (greater than 80% disease control)
- PHI (disease control rating) ([3]; 10 ppm, 10 days at 20° C.): 2 (greater than 80% disease control)

SMILES: Clc1nc2ncnn2c(Cl)c1-c1ccccc1OCc1ccccc1 [Example 20]
- Fungicidal Activity BCB (disease control rating) (Botrytis cinerea [1]): 2 (greater than 80% disease control)
- Fungicidal Activity PR (disease control rating) (Puccinia recondita): 2 (greater than 80% disease control)

SMILES: Fc1ccccc1-c1c(Cl)nc2ncnn2c1Cl [Example 16]
- Fungicidal Activity BCB (disease control rating) (Botrytis cinerea [1]): 1 (about 50-80% disease control)
- Fungicidal Activity AS (disease control rating) (Alternaria solani [2]): 2 (greater than 80% disease control)

SMILES: Clc1nc2ncnn2c(Cl)c1-c1cccc2ccccc12 [Example 23]
- Fungicidal Activity BCB (disease control rating) (Botrytis cinerea [1]): 2 (greater than 80% disease control)
- Fungicidal Activity AS (disease control rating) (Alternaria solani [2]): 2 (greater than 80% disease control)

SMILES: CC(C)c1ccc(-c2c(Cl)nc3ncnn3c2Cl)cc1 [Example 8]
- Fungicidal Activity BCB (disease control rating) (Botrytis cinerea [1]): 2 (greater than 80% disease control)
- Fungicidal Activity PR (disease control rating) (Puccinia recondita): 2 (greater than 80% disease control)

SMILES: Clc1nc2ncnn2c(Cl)c1-c1ccc2ccccc2c1 [Example 10]
- Fungicidal Activity BCB (disease control rating) (Botrytis cinerea [1]): 2 (greater than 80% disease control)
- Fungicidal Activity AS (disease control rating) (Alternaria solani [2]): 2 (greater than 80% disease control)
- Fungicidal Activity PR (disease control rating) (Puccinia recondita): 2 (greater than 80% disease control)

SMILES: Fc1ccc(-c2c(Cl)nc3ncnn3c2Cl)cc1 [Example 11]
- Fungicidal Activity BCB (disease control rating) (Botrytis cinerea [1]): 2 (greater than 80% disease control)
- Fungicidal Activity PR (disease control rating) (Puccinia recondita): 2 (greater than 80% disease control)

SMILES: CCOc1cccc(-c2c(Cl)nc3ncnn3c2Cl)c1OCC [Example 24]
- Fungicidal Activity BCB (disease control rating) (Botrytis cinerea [1]): 2 (greater than 80% disease control)
- Fungicidal Activity AS (disease control rating) (Alternaria solani [2]): 2 (greater than 80% disease control)

SMILES: Cc1ccc(-c2c(Cl)nc3ncnn3c2Cl)cc1C [Example 31]
- AS (disease control rating) (Alternaria solani [5]): 1 (50-80% disease control)
- VII (disease control rating) (Venturia inaegualis; [6]): 2 (greater than 80% disease control)
- BCB (disease control rating) (Botrytis cinerea [4]): 2 (greater than 80% disease control)
- RSI (disease control rating) (Rhizoctonia solani; [6]): 2 (greater than 80% disease control)
- PHI (disease control rating) [3, 6]: 2 (greater than 80% disease control)

SMILES: Clc1nc2ncnn2c(Cl)c1-c1ccccc1Br [Example 18]
- Fungicidal Activity BCB (disease control rating) (Botrytis cinerea [1]): 2 (greater than 80% disease control)
- Fungicidal Activity AS (disease control rating) (Alternaria solani [2]): 2 (greater than 80% disease control)

SMILES: Clc1nc2ncnn2c(Cl)c1-c1ccc(OCc2ccccc2)cc1 [Example 15]
- Fungicidal Activity BCB (disease control rating) (Botrytis cinerea [1]): 2 (greater than 80% disease control)
- Fungicidal Activity AS (disease control rating) (Alternaria solani [2]): 1 (about 50-80% disease control)
- Fungicidal Activity PR (disease control rating) (Puccinia recondita): 1 (about 50-80% disease control)

SMILES: Clc1nc2ncnn2c(Cl)c1C1CCCC1 [Example 32]
- AS (disease control rating) (Alternaria solani [5]): 2 (greater than 80% disease control)
- BCB (disease control rating) (Botrytis cinerea [4]): 1 (50-80% disease control)
- RSI (disease control rating) (Rhizoctonia solani; [6]): 2 (greater than 80% disease control)
- PHI (disease control rating) [3, 6]: 2 (greater than 80% disease control)

SMILES: COc1cc(-c2c(Cl)nc3ncnn3c2Cl)cc(OC)c1OC [Example 28]
- AS (disease control rating) (Alternaria solani [5]): 2 (greater than 80% disease control)
- VII (disease control rating) (Venturia inaegualis; [6]): 2 (greater than 80% disease control)
- BCB (disease control rating) (Botrytis cinerea [4]): 2 (greater than 80% disease control)
- RSI (disease control rating) (Rhizoctonia solani; [6]): 2 (greater than 80% disease control)
- PHI (disease control rating) [3, 6]: 2 (greater than 80% disease control)

SMILES: Brc1ccc(-c2c(Br)nc3ncnn3c2Br)cc1 [Example 40]
- AS (disease control rating) (Alternaria solani [5]): 2 (greater than 80% disease control)
- VII (disease control rating) (Venturia inaegualis; 10 ppm, 10 days at 20° C.): 2 (greater than 80% disease control)
- BCB (disease control rating) (Botrytis cinerea [4]): 2 (greater than 80% disease control)
- RSI (disease control rating) (Rhizoctonia solani; 10 ppm, 10 days at 20° C.): 1 (50-80% disease control)
- PHI (disease control rating) ([3]; 10 ppm, 10 days at 20° C.): 2 (greater than 80% disease control)

SMILES: Cc1ccccc1-c1c(Cl)nc2ncnn2c1Cl [Example 29]
- AS (disease control rating) (Alternaria solani [5]): 1 (50-80% disease control)
- VII (disease control rating) (Venturia inaegualis; [6]): 2 (greater than 80% disease control)
- BCB (disease control rating) (Botrytis cinerea [4]): 2 (greater than 80% disease control)
- RSI (disease control rating) (Rhizoctonia solani; [6]): 2 (greater than 80% disease control)
- PHI (disease control rating) [3, 6]: 2 (greater than 80% disease control)

SMILES: Clc1ccccc1-c1c(Cl)nc2ncnn2c1Cl [Example 1, 5,7-dichloro-6-(2-chlorophenyl)-1,2,4-triazolo-[1,5a]pyrimidine]
- Fungicidal Activity BCB (disease control rating) (Botrytis cinerea [1]): 2 (greater than 80% disease control)
- Fungicidal Activity AS (disease control rating) (Alternaria solani [2]): 1 (about 50-80% disease control)
- Fungicidal Activity PR (disease control rating) (Puccinia recondita): 2 (greater than 80% disease control)

SMILES: Fc1cccc(Cl)c1-c1c(Cl)nc2ncnn2c1Cl [Example 37]
- AS (disease control rating) (Alternaria solani [5]): 1 (50-80% disease control)
- VII (disease control rating) (Venturia inaegualis; 10 ppm, 10 days at 20° C.): 2 (greater than 80% disease control)
- BCB (disease control rating) (Botrytis cinerea [4]): 1 (50-80% disease control)
- PHI (disease control rating) ([3]; 10 ppm, 10 days at 20° C.): 2 (greater than 80% disease control)

SMILES: FC(F)(F)Oc1ccc(-c2c(Cl)nc3ncnn3c2Cl)cc1 [Example 9]
- Fungicidal Activity BCB (disease control rating) (Botrytis cinerea [1]): 2 (greater than 80% disease control)
- Fungicidal Activity AS (disease control rating) (Alternaria solani [2]): 2 (greater than 80% disease control)
- Fungicidal Activity PR (disease control rating) (Puccinia recondita): 2 (greater than 80% disease control)

SMILES: Clc1ccc(-c2c(Cl)nc3ncnn3c2Cl)c(Cl)c1 [Example 35]
- VII (disease control rating) (Venturia inaegualis; 10 ppm, 10 days at 20° C.): 2 (greater than 80% disease control)
- RSI (disease control rating) (Rhizoctonia solani; 10 ppm, 10 days at 20° C.): 1 (50-80% disease control)
- PHI (disease control rating) ([3]; 10 ppm, 10 days at 20° C.): 2 (greater than 80% disease control)

SMILES: COc1ccc(-c2c(Cl)nc3ncnn3c2Cl)cc1 [Example 38]
- VII (disease control rating) (Venturia inaegualis; 10 ppm, 10 days at 20° C.): 2 (greater than 80% disease control)
- BCB (disease control rating) (Botrytis cinerea [4]): 2 (greater than 80% disease control)
- RSI (disease control rating) (Rhizoctonia solani; 10 ppm, 10 days at 20° C.): 1 (50-80% disease control)
- PHI (disease control rating) ([3]; 10 ppm, 10 days at 20° C.): 2 (greater than 80% disease control)

SMILES: Clc1nc2ncnn2c(Cl)c1C1CCCCC1 [Example 33]
- AS (disease control rating) (Alternaria solani [5]): 2 (greater than 80% disease control)
- BCB (disease control rating) (Botrytis cinerea [4]): 2 (greater than 80% disease control)
- RSI (disease control rating) (Rhizoctonia solani; [6]): 2 (greater than 80% disease control)
- PHI (disease control rating) [3, 6]: 2 (greater than 80% disease control)

SMILES: COc1ccccc1-c1c(Cl)nc2ncnn2c1Cl [Example 5]
- Fungicidal Activity BCB (disease control rating) (Botrytis cinerea [1]): 2 (greater than 80% disease control)
- Fungicidal Activity AS (disease control rating) (Alternaria solani [2]): 2 (greater than 80% disease control)
- Fungicidal Activity PR (disease control rating) (Puccinia recondita): 1 (about 50-80% disease control)

SMILES: Fc1ccccc1-c1c(Br)nc2ncnn2c1Br [Example 34]
- AS (disease control rating) (Alternaria solani [5]): 2 (greater than 80% disease control)
- VII (disease control rating) (Venturia inaegualis; 10 ppm, 10 days at 20° C.): 2 (greater than 80% disease control)
- RSI (disease control rating) (Rhizoctonia solani; 10 ppm, 10 days at 20° C.): 1 (50-80% disease control)
- PHI (disease control rating) ([3]; 10 ppm, 10 days at 20° C.): 2 (greater than 80% disease control)

SMILES: Clc1nc2ncnn2c(Cl)c1-c1ccsc1 [Example 27]
- AS (disease control rating) (Alternaria solani [5]): 2 (greater than 80% disease control)
- VII (disease control rating) (Venturia inaegualis; [6]): 2 (greater than 80% disease control)
- BCB (disease control rating) (Botrytis cinerea [4]): 1 (50-80% disease control)
- RSI (disease control rating) (Rhizoctonia solani; [6]): 2 (greater than 80% disease control)

SMILES: FC(F)(F)c1ccccc1-c1c(Cl)nc2ncnn2c1Cl [Example 39]
- VII (disease control rating) (Venturia inaegualis; 10 ppm, 10 days at 20° C.): 2 (greater than 80% disease control)
- PHI (disease control rating) ([3]; 10 ppm, 10 days at 20° C.): 2 (greater than 80% disease control)

SMILES: Fc1cccc(-c2c(Cl)nc3ncnn3c2Cl)c1 [Example 17]
- Fungicidal Activity BCB (disease control rating) (Botrytis cinerea [1]): 2 (greater than 80% disease control)
- Fungicidal Activity AS (disease control rating) (Alternaria solani [2]): 2 (greater than 80% disease control)

SMILES: Clc1cccc(-c2c(Cl)nc3ncnn3c2Cl)c1 [Example 30]
- AS (disease control rating) (Alternaria solani [5]): 2 (greater than 80% disease control)
- VII (disease control rating) (Venturia inaegualis; [6]): 2 (greater than 80% disease control)
- BCB (disease control rating) (Botrytis cinerea [4]): 2 (greater than 80% disease control)
- RSI (disease control rating) (Rhizoctonia solani; [6]): 2 (greater than 80% disease control)
- PHI (disease control rating) [3, 6]: 2 (greater than 80% disease control)

SMILES: COc1cccc(-c2c(Cl)nc3ncnn3c2Cl)c1OC [Example 21]
- Fungicidal Activity AS (disease control rating) (Alternaria solani [2]): 2 (greater than 80% disease control)

SMILES: Clc1nc2ncnn2c(Cl)c1-c1ccc(Br)cc1 [Example 19]
- Fungicidal Activity AS (disease control rating) (Alternaria solani [2]): 2 (greater than 80% disease control)

SMILES: Clc1ccc(-c2c(Cl)nc3ncnn3c2Cl)cc1Cl [Example 25]
- Fungicidal Activity BCB (disease control rating) (Botrytis cinerea [1]): 1 (about 50-80% disease control)
- Fungicidal Activity AS (disease control rating) (Alternaria solani [2]): 1 (about 50-80% disease control)
